This is one part of the list.
What was measured:
Assay in all cases: log2 fold change, soluble protein after heating vs DMSO (PISA); higher = thermal stabilisation; K562 cells, 10 uM, 30 min; active = over 0.2 and 3.5 SD of the protein, either way, in both replicates (recomputed)
[1] = compound: CC1=C(C=C(C=C1)NC(=O)C2=CC(=CC=C2)C(C)(C)C#N)NC3=CC4=C(C=C3)N=CN(C4=O)C
Method in brief: (§1)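 K562 cells (2×10^6 cells/mL) were treated with 10 μM compound for 30 min, and aliquots were heated for 3 min over 48°C-58°C. Pooled aliquots were extracted in PBS with 0.5% NP-40 at 4°C, and the supernatant after 21,000xg for 90 min was measured by TMTpro 16plex LC-MS/MS with channel sums equalised. Reported thermal stability, relative to control samples and from duplicates, is a log2 fold change.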

Amino acid sequences for entries named in this document (tags omitted). A change or cut given only in a name is not applied to a line headed by its entry.
UniProt Q8NI60: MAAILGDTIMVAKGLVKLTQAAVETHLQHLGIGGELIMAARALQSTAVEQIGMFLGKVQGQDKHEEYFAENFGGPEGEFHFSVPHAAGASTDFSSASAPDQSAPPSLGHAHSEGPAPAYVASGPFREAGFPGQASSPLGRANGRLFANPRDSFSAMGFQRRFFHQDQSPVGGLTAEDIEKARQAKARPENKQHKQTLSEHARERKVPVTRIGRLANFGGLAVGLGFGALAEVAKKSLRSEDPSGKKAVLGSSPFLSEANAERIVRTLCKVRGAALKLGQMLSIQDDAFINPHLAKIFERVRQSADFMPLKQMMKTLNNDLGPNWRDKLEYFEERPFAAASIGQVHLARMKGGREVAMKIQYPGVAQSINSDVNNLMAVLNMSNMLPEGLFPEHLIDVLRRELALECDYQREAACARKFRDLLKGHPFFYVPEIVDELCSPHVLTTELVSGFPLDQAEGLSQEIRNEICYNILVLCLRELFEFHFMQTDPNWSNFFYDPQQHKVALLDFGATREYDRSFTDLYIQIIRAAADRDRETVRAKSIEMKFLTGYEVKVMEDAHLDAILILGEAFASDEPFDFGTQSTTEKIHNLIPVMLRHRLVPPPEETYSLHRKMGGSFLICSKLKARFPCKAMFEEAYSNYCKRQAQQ
UniProt P12109: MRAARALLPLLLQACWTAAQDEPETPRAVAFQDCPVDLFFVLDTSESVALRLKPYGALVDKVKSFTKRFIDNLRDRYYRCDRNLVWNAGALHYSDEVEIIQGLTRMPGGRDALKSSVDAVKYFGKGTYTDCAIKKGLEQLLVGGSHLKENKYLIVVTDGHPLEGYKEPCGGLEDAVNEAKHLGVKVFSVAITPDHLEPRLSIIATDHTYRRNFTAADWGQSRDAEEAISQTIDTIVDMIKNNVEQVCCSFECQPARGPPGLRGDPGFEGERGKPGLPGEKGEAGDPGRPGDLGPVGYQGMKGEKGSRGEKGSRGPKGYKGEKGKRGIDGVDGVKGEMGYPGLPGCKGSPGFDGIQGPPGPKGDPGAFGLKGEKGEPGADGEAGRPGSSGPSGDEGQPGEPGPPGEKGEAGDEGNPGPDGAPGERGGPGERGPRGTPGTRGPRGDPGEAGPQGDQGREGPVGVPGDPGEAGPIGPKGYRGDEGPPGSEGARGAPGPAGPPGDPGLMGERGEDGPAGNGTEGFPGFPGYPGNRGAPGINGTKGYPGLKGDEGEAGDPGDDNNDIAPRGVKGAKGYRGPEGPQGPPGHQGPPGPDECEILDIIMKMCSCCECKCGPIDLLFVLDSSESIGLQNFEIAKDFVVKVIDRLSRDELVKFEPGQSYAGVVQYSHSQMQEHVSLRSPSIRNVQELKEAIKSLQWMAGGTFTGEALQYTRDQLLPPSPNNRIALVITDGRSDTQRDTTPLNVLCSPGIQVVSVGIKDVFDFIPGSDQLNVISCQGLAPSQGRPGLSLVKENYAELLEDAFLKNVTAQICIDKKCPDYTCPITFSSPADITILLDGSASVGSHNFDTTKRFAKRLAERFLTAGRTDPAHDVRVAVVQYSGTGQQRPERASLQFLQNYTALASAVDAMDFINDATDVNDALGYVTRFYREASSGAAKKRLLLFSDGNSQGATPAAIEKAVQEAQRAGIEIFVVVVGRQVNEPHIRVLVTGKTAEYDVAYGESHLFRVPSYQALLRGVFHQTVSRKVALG
UniProt P14854, whole entry, looked up: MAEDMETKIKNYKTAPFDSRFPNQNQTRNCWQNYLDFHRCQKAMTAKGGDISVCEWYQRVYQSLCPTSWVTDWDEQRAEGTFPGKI
UniProt Q9BSW2: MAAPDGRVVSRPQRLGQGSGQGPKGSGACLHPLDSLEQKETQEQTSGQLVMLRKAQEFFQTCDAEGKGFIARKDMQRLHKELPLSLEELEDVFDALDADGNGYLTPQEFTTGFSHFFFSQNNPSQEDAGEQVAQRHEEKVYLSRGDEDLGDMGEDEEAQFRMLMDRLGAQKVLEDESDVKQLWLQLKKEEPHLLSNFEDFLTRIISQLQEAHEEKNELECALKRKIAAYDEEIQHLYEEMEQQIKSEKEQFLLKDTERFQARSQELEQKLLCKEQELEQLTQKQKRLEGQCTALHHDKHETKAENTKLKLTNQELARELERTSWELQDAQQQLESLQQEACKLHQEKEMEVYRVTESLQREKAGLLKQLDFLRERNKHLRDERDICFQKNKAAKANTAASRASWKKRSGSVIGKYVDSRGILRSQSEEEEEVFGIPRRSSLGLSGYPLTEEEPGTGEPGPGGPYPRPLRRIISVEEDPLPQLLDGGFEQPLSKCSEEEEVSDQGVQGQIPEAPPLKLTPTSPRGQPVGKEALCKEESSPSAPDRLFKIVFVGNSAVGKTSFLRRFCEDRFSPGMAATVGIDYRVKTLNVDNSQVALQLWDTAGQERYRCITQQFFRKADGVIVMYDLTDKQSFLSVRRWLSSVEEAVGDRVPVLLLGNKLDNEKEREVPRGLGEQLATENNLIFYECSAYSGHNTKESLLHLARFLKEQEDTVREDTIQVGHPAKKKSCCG
UniProt Q9NX08, whole entry, looked up: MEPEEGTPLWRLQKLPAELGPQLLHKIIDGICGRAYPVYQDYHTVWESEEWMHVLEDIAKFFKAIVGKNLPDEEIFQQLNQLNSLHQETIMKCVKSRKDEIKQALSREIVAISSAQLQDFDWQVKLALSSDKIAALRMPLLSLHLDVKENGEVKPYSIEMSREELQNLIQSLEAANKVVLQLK
UniProt Q96I36: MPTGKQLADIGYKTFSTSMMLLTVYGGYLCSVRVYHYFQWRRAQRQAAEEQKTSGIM
UniProt P61923: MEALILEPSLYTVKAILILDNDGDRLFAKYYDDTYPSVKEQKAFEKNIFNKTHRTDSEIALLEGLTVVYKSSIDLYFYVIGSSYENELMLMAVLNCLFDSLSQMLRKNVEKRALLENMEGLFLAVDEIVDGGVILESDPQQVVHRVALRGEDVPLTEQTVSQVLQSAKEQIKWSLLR
UniProt P12074, whole entry, looked up: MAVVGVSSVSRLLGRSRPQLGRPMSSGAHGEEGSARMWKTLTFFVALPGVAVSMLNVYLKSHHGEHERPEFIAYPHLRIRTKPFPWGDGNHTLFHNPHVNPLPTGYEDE
UniProt Q9BR76, whole entry, looked up: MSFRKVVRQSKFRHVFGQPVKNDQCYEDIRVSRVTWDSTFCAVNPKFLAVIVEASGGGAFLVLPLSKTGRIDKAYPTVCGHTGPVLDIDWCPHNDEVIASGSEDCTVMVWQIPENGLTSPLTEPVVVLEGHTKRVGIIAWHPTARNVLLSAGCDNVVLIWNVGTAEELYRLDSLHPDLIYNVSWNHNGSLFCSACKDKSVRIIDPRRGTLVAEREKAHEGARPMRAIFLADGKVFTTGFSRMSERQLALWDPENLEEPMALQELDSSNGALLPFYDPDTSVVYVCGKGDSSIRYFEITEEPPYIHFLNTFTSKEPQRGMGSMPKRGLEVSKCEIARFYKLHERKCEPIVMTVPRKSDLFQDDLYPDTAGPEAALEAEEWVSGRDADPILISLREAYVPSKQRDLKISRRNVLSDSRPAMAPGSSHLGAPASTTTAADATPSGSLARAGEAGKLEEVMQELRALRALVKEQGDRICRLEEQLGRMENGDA
UniProt Q9Y6N1: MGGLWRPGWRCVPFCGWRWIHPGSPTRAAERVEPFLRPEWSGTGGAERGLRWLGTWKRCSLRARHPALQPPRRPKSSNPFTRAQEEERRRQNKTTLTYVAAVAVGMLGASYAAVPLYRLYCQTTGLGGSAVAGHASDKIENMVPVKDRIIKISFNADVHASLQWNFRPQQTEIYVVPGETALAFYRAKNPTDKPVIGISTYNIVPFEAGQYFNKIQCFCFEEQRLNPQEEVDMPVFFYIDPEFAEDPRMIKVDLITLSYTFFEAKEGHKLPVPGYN
UniProt P48729: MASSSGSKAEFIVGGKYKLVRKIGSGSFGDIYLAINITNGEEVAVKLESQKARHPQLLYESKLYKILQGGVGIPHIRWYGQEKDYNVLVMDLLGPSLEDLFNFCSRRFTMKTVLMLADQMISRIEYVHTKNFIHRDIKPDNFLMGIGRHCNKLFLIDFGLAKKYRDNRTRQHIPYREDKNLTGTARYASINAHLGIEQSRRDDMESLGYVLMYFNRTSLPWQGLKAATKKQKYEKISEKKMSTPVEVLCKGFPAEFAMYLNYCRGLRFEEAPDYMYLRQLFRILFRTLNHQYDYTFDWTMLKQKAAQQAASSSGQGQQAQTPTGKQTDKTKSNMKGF
UniProt O75575: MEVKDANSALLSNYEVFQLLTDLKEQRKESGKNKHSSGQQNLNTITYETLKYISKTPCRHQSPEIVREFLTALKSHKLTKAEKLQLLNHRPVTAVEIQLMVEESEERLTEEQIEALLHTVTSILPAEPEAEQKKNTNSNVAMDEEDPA
UniProt Q6UUV9: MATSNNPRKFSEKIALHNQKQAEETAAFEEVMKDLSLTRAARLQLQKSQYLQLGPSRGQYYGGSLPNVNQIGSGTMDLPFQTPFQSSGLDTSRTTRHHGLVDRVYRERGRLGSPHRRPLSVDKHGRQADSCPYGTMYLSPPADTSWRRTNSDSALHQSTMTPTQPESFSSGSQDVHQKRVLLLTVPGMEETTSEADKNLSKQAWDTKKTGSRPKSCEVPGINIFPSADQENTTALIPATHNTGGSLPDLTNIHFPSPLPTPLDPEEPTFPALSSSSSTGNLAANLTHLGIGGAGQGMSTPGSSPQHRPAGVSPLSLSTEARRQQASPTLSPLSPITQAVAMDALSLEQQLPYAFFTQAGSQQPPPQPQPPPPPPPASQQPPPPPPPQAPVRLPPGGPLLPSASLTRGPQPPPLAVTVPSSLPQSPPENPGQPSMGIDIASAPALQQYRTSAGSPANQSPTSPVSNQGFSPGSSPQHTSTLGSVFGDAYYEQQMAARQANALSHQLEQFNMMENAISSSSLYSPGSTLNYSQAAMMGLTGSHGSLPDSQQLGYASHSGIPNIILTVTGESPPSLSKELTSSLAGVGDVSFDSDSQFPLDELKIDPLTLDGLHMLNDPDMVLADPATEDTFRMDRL
UniProt Q03060: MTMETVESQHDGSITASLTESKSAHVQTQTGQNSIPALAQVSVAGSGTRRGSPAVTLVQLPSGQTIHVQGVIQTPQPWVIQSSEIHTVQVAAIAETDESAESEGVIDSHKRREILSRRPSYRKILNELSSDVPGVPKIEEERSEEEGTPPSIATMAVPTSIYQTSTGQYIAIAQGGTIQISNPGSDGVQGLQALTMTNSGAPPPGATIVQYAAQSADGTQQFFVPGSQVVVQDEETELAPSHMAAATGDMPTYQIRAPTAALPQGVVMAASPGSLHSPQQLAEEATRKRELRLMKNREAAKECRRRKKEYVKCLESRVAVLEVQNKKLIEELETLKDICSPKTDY
UniProt Q49B96: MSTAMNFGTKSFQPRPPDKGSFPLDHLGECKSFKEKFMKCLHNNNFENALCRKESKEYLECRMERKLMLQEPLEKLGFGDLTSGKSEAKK
UniProt Q7Z5Q1: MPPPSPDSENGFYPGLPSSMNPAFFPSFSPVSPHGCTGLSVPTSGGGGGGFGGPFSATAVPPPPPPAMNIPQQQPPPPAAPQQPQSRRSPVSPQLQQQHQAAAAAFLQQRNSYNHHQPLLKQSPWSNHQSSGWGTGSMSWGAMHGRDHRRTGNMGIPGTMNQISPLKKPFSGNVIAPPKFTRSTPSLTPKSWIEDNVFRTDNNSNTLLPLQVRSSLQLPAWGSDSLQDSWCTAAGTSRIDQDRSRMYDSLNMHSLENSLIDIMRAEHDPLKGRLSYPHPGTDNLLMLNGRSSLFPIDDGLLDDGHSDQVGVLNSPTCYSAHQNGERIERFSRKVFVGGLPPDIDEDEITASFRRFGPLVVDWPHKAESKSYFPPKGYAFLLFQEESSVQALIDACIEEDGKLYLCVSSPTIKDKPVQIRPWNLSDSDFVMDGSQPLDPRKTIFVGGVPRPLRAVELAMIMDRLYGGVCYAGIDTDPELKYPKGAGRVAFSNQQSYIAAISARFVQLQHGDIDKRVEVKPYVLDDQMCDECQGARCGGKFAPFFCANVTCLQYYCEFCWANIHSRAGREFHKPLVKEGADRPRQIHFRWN
UniProt P24311, whole entry, looked up: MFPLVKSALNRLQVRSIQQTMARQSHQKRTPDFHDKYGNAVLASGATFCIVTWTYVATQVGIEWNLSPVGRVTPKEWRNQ
UniProt Q92828: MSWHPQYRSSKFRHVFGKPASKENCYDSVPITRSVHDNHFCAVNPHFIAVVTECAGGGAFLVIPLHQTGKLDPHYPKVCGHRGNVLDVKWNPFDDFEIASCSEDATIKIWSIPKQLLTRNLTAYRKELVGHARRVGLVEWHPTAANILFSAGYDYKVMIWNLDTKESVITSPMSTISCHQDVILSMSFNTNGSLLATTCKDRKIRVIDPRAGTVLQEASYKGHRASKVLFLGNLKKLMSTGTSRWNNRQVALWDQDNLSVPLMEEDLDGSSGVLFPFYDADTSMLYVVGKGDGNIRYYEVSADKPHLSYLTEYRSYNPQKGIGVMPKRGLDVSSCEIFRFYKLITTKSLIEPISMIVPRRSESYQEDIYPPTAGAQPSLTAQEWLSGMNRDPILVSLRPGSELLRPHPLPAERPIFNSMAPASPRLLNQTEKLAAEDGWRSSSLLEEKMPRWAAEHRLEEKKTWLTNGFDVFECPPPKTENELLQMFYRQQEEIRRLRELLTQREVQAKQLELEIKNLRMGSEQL

[2] = compound: CC1=C(C=C(C=C1)NC(=O)C2=CC(=CC=C2)N(C)C)NC(=O)C3=CC=C(C=C3)O
Method in brief: as §1

[3] = compound: CC1=CC=C(C=C1)SC2=C3C=C(SC3=CN=C2)C(=O)N
Method in brief: as §1

[4] = compound: CC1=NC(=CC=C1)C2=C(N=C(N2)C(C)(C)C)C3=CC4=NC=CN=C4C=C3
Method in brief: as §1

Nexturastat A = compound: CCCCN(Cc1ccc(C(=O)NO)cc1)C(=O)Nc1ccccc1 [Nexturastat A]
Method in brief: as §1

vemurafenib = compound: CCCS(=O)(=O)Nc1ccc(F)c(C(=O)c2c[nH]c3ncc(-c4ccc(Cl)cc4)cc23)c1F [vemurafenib]
Method in brief: as §1

[5] = compound: CCCS(=O)(=O)Nc1ccc(F)c(C(=O)c2c[nH]c3ncc(Cl)cc23)c1F
Method in brief: as §1

[6] = compound: CCCc1cc(C)[nH]c(=O)c1CNC(=O)c1cc(-c2ccnc(N3CCN(C)CC3)c2)cc2c1cnn2C(C)C
Method in brief: as §1

givinostat = compound: CCN(CC)Cc1ccc2cc(COC(=O)Nc3ccc(C(=O)NO)cc3)ccc2c1 [givinostat]
Method in brief: as §1

barasertib = compound: CCN(CCCOc1ccc2c(Nc3cc(CC(=O)Nc4cccc(F)c4)[nH]n3)ncnc2c1)CCOP(=O)(O)O [barasertib]
Method in brief: as §1

| Target | log2 fold change [1] | log2 fold change [2] | log2 fold change [3] | log2 fold change [4] | log2 fold change (Nexturastat A) | log2 fold change (vemurafenib) | log2 fold change [5] | log2 fold change [6] | log2 fold change (givinostat) | log2 fold change (barasertib) |
| --- | --- | --- | --- | --- | --- | --- | --- | --- | --- | --- |
| COX15 (UniProt Q7KZN9) | inactive: 0.05 | inactive: 0.024 | inactive: 0.001 | inactive: 0.003 | inactive: -0.113 | inactive: 0.005 | inactive: 0.015 | inactive: -0.077 | inactive: -0.008 | inactive: 0.009 |
| COMMD4 (UniProt Q9H0A8) | inactive: 0.013 | inactive: -0.004 |  | inactive: 0.137 | inactive: -0.07 | inactive: 0.135 |  | inactive: 0.034 | inactive: 0.158 | inactive: -0.029 |
| CRLS1 (UniProt Q9UJA2) | active: 0.337 |  | inactive: 0.064 | inactive: -0.014 |  | inactive: 0.033 | inactive: 0.117 | inactive: -0.074 | inactive: -0.108 |  |
| COQ8A (UniProt Q8NI60) | inactive: 0.044 | inactive: -0.053 | inactive: 0.001 | inactive: 0.034 | inactive: -0.024 | inactive: 0.028 | inactive: 0.047 | inactive: -0.085 | inactive: -0.049 | inactive: 0.02 |
| COL6A1 (UniProt P12109) | inactive: -0.05 | inactive: 0.184 | inactive: 0.045 | inactive: 0.103 |  | inactive: 0.191 | inactive: -0.242 | inactive: -0.241 | inactive: -0.066 | inactive: -0.054 |
| CRYM-AS1 (UniProt A6NIL9) | inactive: 0.239 | inactive: -0.066 |  | inactive: -0.224 | inactive: 0.332 | inactive: 0.161 |  | inactive: -0.049 | inactive: 0.189 | inactive: -0.036 |
| COX6B1 (UniProt P14854) | inactive: -0.006 | inactive: -0.144 | inactive: 0.136 | inactive: 0.016 | inactive: -0.001 | inactive: 0.015 | inactive: -0.005 | inactive: -0.069 | inactive: -0.025 | inactive: 0.085 |
| COQ10B (UniProt Q9H8M1) | inactive: 0.057 | inactive: 0.111 |  | inactive: -0.184 | inactive: -0.097 |  |  |  |  | inactive: 0.276 |
| CRACR2A isoform 2 (UniProt Q9BSW2) | inactive: -0.004 | inactive: -0.024 | inactive: 0.024 | inactive: 0.023 | inactive: -0.059 | inactive: -0.011 | inactive: -0.029 | inactive: 0.067 | inactive: 0.078 | inactive: 0.004 |
| CRTC3 (UniProt Q6UUV7) | inactive: -0.017 | inactive: 0.087 | inactive: 0.033 |  | inactive: -0.049 | inactive: -0.093 | inactive: 0.144 | active: -0.543 |  | inactive: 0.035 |
| COMMD8 (UniProt Q9NX08) | inactive: 0.01 | inactive: -0.034 | inactive: 0.085 | inactive: 0.044 | inactive: 0.052 |  | inactive: 0.028 | inactive: 0.014 | inactive: 0.007 | inactive: 0.069 |
| COX14 (UniProt Q96I36) | inactive: 0.081 |  | inactive: -0.05 | inactive: 0.171 | inactive: -0.174 |  | inactive: 0.037 |  | inactive: -0.046 | inactive: -0.277 |
| COPZ1 isoform 4 (UniProt P61923) | inactive: 0.023 | inactive: -0.045 | inactive: 0.023 | inactive: -0.024 | inactive: -0.004 | inactive: 0.051 | inactive: 0.035 | inactive: -0.007 | inactive: -0.039 | inactive: 0.092 |
| COX6A1 (UniProt P12074) | inactive: -0.059 | inactive: -0.083 | inactive: -0.053 | inactive: -0.03 |  | inactive: -0.133 | inactive: -0.08 | inactive: 0.328 | inactive: -0.029 | inactive: -0.034 |
| CPEB4 (UniProt Q17RY0) | inactive: -0.158 | inactive: -0.009 | inactive: 0.022 | inactive: 0.03 |  | inactive: 0.034 | inactive: 0.053 | inactive: 0.036 |  | inactive: -0.047 |
| CORO1B (UniProt Q9BR76) | inactive: 0.016 | inactive: -0.027 | inactive: 0.031 | inactive: 0.074 | inactive: -0.066 | inactive: 0.062 | inactive: 0 | inactive: 0.048 | inactive: -0.019 | inactive: 0.011 |
| CPSF3 (UniProt Q9UKF6) | inactive: -0.014 | inactive: 0.005 | inactive: -0.006 | inactive: -0.012 | inactive: -0.085 | inactive: 0.017 | inactive: 0.063 | inactive: -0.001 | inactive: -0.03 | inactive: 0.022 |
| COX11 (UniProt Q9Y6N1) | inactive: -0.094 | inactive: -0.077 | inactive: -0.006 | inactive: 0.086 | inactive: -0.066 | inactive: 0.027 | inactive: 0.037 | inactive: -0.047 | inactive: -0.051 | inactive: -0.006 |
| CSNK1A1 (UniProt P48729) | inactive: -0.021 | inactive: 0.03 | inactive: -0.006 | inactive: -0.12 | inactive: 0.028 | inactive: -0.006 | inactive: 0 | inactive: 0.031 | inactive: 0.037 | inactive: 0 |
| CRCP (UniProt O75575) | inactive: -0.06 |  | inactive: 0.046 | inactive: 0.049 | inactive: 0.13 |  | inactive: 0.085 | inactive: 0 |  | inactive: 0.031 |
| CRTC1 isoform 2 (UniProt Q6UUV9) | inactive: -0.001 | inactive: 0.195 | inactive: -0.086 | inactive: 0.073 | inactive: 0.24 | inactive: -0.035 | inactive: 0.051 |  | inactive: 0.158 | inactive: 0.015 |
| COPS3 isoform 2 (UniProt Q9UNS2) | inactive: -0.154 | inactive: 0.03 | inactive: 0.066 | inactive: -0.128 | inactive: -0.113 | inactive: -0.303 | inactive: -0.14 | inactive: -0.162 |  | inactive: 0.065 |
| CREM isoform 1 (UniProt Q03060) | inactive: -0.086 | inactive: 0.07 | inactive: -0.031 |  | inactive: -0.135 | inactive: -0.15 | inactive: -0.07 | inactive: -0.062 | inactive: -0.162 | inactive: 0.04 |
| COX19 (UniProt Q49B96) | inactive: -0.046 | inactive: 0.004 | inactive: 0.008 | inactive: -0.039 | inactive: -0.016 | inactive: 0.025 | inactive: -0.026 | inactive: -0.063 | inactive: -0.007 | inactive: 0.006 |
| CPTP (UniProt Q5TA50) | inactive: 0.078 | inactive: -0.323 |  | inactive: 0.086 |  |  |  | inactive: -0.288 | inactive: 0.01 |  |
| CPEB2 isoform 9 (UniProt Q7Z5Q1) | inactive: 0.081 | inactive: -0.077 | inactive: 0.028 | inactive: -0.197 | inactive: 0.238 | inactive: -0.389 | inactive: 0.274 |  | inactive: 0.172 | inactive: -0.024 |
| CPPED1 (UniProt Q9BRF8) | inactive: 0.014 | inactive: 0.027 | inactive: 0.014 | inactive: 0.007 | inactive: -0.004 | inactive: 0.023 | inactive: 0 | inactive: -0.083 | inactive: -0.025 | inactive: -0.009 |
| COX7B (UniProt P24311) | inactive: 0.048 |  | inactive: 0.045 | inactive: 0.094 | inactive: -0.056 | inactive: -0.148 | inactive: 0.136 | inactive: -0.188 | inactive: -0.013 | inactive: -0.025 |
| CORO2A (UniProt Q92828) | inactive: 0.014 | inactive: 0.157 | inactive: 0.01 |  |  | inactive: 0.063 | inactive: 0.054 | inactive: 0.026 | inactive: 0.002 | inactive: 0.065 |

An excerpt of these results, tab-delimited.
Target	log2 fold change [1]	log2 fold change [2]	log2 fold change [3]	log2 fold change [4]	log2 fold change (Nexturastat A)	log2 fold change (vemurafenib)	log2 fold change [5]	log2 fold change [6]	log2 fold change (givinostat)	log2 fold change (barasertib)
COPS3 isoform 2 (UniProt Q9UNS2)	inactive: -0.154	inactive: 0.03	inactive: 0.066	inactive: -0.128	inactive: -0.113	inactive: -0.303	inactive: -0.14	inactive: -0.162		inactive: 0.065
CREM isoform 1 (UniProt Q03060)	inactive: -0.086	inactive: 0.07	inactive: -0.031		inactive: -0.135	inactive: -0.15	inactive: -0.07	inactive: -0.062	inactive: -0.162	inactive: 0.04
COX19 (UniProt Q49B96)	inactive: -0.046	inactive: 0.004	inactive: 0.008	inactive: -0.039	inactive: -0.016	inactive: 0.025	inactive: -0.026	inactive: -0.063	inactive: -0.007	inactive: 0.006
CPTP (UniProt Q5TA50)	inactive: 0.078	inactive: -0.323		inactive: 0.086				inactive: -0.288	inactive: 0.01	
CPEB2 isoform 9 (UniProt Q7Z5Q1)	inactive: 0.081	inactive: -0.077	inactive: 0.028	inactive: -0.197	inactive: 0.238	inactive: -0.389	inactive: 0.274		inactive: 0.172	inactive: -0.024
CPPED1 (UniProt Q9BRF8)	inactive: 0.014	inactive: 0.027	inactive: 0.014	inactive: 0.007	inactive: -0.004	inactive: 0.023	inactive: 0	inactive: -0.083	inactive: -0.025	inactive: -0.009
COX7B (UniProt P24311)	inactive: 0.048		inactive: 0.045	inactive: 0.094	inactive: -0.056	inactive: -0.148	inactive: 0.136	inactive: -0.188	inactive: -0.013	inactive: -0.025
CORO2A (UniProt Q92828)	inactive: 0.014	inactive: 0.157	inactive: 0.01			inactive: 0.063	inactive: 0.054	inactive: 0.026	inactive: 0.002	inactive: 0.065

From the supplement of paper PMC10849652
